Several values for one entry are separate records, joined by “and”; a condition that tells them apart may be missing. Equal entries are not always repeated. Where two headings read alike, the source gives them in different places.
Columns and labels:
[1] = grapes; for FOUND (PPM): Set 2, individual samples; for Conc. From curve: final extract
[2] = soybean seed, Set 4, individual samples
[3] = milk, egg, and muscle matrices
[4] = Limit of quantitation and estimated limit of detection in corn and soybean matrices
[5] = parameters: species or system soybean; details: CX samples, internal standard
[6] = Whole Milk (RM Raw Milk), MCX
[7] = parameters: species or system cow and chicken; details: cow kidney (beef), fortified 0.5 mg/kg (10X LOQ)
[8] = Trial 1, Set 2, 4X LOQ samples (fortified 0.200 μg/g)
[9] = Trial 1, Set 2, LOQ samples (fortified about 0.050 μg/g)

SMILES	FOUND (PPM) ([1]; fortification level 0.050 ppm)	FOUND (PPM) ([1]; fortification level 0.20 ppm)	FOUND (PPM) ([2]; fortification level 0.050 ppm)	FOUND (PPM) ([2]; fortification level 20 ppm)	LOQ [3]	LOQ validated [4]	Conc. From curve [1, 8]	Conc. From curve [1, 9]	Recoveries: AMPA % Rec ([5]; soybean meal fortified at 0.05 mg/kg (LOQ))	Recoveries: AMPA % Rec ([5]; soybean meal fortified at 0.5 mg/kg (10X))	Recoveries % Rec ([6]; fortified 0.05 mg/kg)	Recoveries % Rec ([6]; fortified 0.5 mg/kg) [%]	AMPA % Rec [7]
CC(=O)NCP(=O)(O)O [N-acetyl AMPA, (Acetamidomethyl)phosphonic acid]	0.051 PPM and 0.049 PPM and 0.044 PPM and 0.050 PPM and 0.040 PPM	0.17 PPM and 0.18 PPM and 0.16 PPM (2×) and 0.15 PPM	0.051 PPM and 0.049 PPM and 0.048 PPM (2×) and 0.044 PPM	17 PPM and 24 PPM (2×) and 25 PPM and 21 PPM	0.025 mg/kg (ppm)								
CC(=O)N(CC(=O)O)CP(=O)(O)O [N-acetylglyphosate, N-Acetyl-N-(phosphonomethyl)glycine]	0.050 PPM and 0.046 PPM (2×) and 0.049 PPM and 0.47 PPM				0.025 mg/kg (ppm)	0.050 ppm (mg/kg)	3.19 ng/mL and 3.51 ng/mL and 3.43 ng/mL and 3.45 ng/mL and 3.59 ng/mL	0.937 ng/mL and 0.989 ng/mL and 0.920 ng/mL and 0.922 ng/mL					
NCP(=O)(O)O [AMPA, aminomethyl phosphonic acid]					0.025 mg/kg (ppm)	0.050 ppm (mg/kg)	5.58 ng/mL and 5.94 ng/mL and 5.80 ng/mL and 6.20 ng/mL and 5.62 ng/mL	1.68 ng/mL and 1.52 ng/mL and 1.60 ng/mL and 1.65 ng/mL and 1.63 ng/mL	82% and 90%	73% and 76%	89% and 84%	82	77% and 71%

Reference: patent US20080280370A1 (priority 2007, published 2008)
